Patent US20210284691A1, “CBX8 CHROMDOMAIN INHIBITORS AND THE USES THEREOF” (Purdue Research Foundation, priority 2019, published 2021)
For at least one compound, name, drawing or mass did not settle the structure. Square brackets hold non-standard residues; d marks the D form. Peptide text beside a SMILES is read from it. * marks the point of attachment. X1 = O=C(NCCCCn1cc(CN*)nn1)c1ccc(-c2c3ccc(=O)cc-3oc3cc(O)ccc23)cc1; Tyr(3-Cl) = N[C@@H](Cc1ccc(O)c(Cl)c1)C(=O)O; Benzoyl(3,5-Cl2) = O=C(c1cc(Cl)cc(Cl)c1)*; Lys(Et2) = CCN(CC)CCCC[C@H](N)C(=O)O; Gly(cPent) = N[C@H](C(=O)O)C1CCCC1

Columns and labels:
CBX7 ChD = biological target: T1, CBX7 ChD (Homo sapiens, UniProt O95931); assay: Direct fluorescence polarization (FP) binding assay; conditions: read-out: CBX Protein Chromodomain Kd (μM) CBX7, Table 3, fluorescein-conjugated ligands, n = 4 ± s.d.
T1 construct: CBX chromodomain constructs; host or cells: E. coli BL21 CodonPlus RIL
T1 sequence (O95931 11-69 limits assumed): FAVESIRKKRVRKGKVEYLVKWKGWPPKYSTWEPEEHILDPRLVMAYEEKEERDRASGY
Experimental: (§1) CBX chromodomain constructs (addgene plasmid #25158 (CBX2), #25237 (CBX4), #25296 (CBX6), #25241 (CBX7) and #62514 (CBX8, provided by Cheryl Arrowsmith), Kaustov et al.) were transformed into chemically competent BL21 CodonPlus RIL E. coli cells (Stratagene, La Jolla, Calif.) as N-terminal His6-tagged proteins. Bacterial growth was completed at 37° C. in LB media to OD600=2.0, followed by reducing the temperature to 16° C. over 30-60 min and induced with 1 mM IPTG for 16 h. Cells were collected by centrifugation at 6000 rpm for 20 min and resuspended in ChD binding buffer (20 mM Tris, pH 8, 150 mM NaCl, 0.01% Tween-20, 20 mM imidazole) with 1.0 mM PMSF. Bacteria pellets were stored at −80° C. until needed. Pellets were thawed on ice for 10 min in ChD binding buffer, and shaked at 4° C. supplemented with 100 μg/mL lysozyme, 1 mg/mL CHAPS and 1 mM PMSF, for 30 min. Cells were subsequently lysed by sonication (15 W, 30 s on, followed by 30 s off, twice, followed by 20 W for 1 min). The solubilized fraction was collected by centrifugation at 15000 rpm for 40 min at 4° C. Meanwhile, Ni-NTA Agarose resin (QIAGEN, Venlo, Netherlands) was washed with H2O and equilibrated with ChD binding buffer. […] Protein purity was assessed by SDS-PAGE and concentration was determined by the Pierce 660 kit (Thermo Scientific).
(§2) Direct fluorescence polarization (FP) binding assay of PSL hits against PcG CBX ChDs. […]

CBX2 ChD [1] = biological target: T2, CBX2 ChD (Homo sapiens, UniProt Q14781); assay: Thermal Shift Assay (TSA); format: binding; conditions: Thermal Shift Assay of the non-derivatized ligand
T2 construct: CBX chromodomain constructs; host or cells: E. coli BL21 CodonPlus RIL
T2 sequence (Q14781 12-70 limits assumed): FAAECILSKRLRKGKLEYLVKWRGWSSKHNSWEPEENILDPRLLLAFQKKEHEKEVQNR

CBX2 ChD [2] = biological target: T2, CBX2 ChD; assay: Direct fluorescence polarization (FP) binding assay; conditions: read-out: CBX Protein Chromodomain Kd (μM) CBX2, Table 3, fluorescein-conjugated ligands, n = 4 ± s.d.
Experimental: as §1, with “Bacterial” for “CBX chromodomain constructs (addgene plasmid #25158 (CBX2), #25237 (CBX4), #25296 (CBX6), #25241 (CBX7) and #62514 (CBX8, provided by Cheryl Arrowsmith), Kaustov et al.) were transformed into chemically competent BL21 CodonPlus RIL E. coli cells (Stratagene, La Jolla, Calif.) as N-terminal His6-tagged proteins. Bacterial”, “buffer. The soluble fraction was incubated with the prewashed Ni-NTA agarose resin at 4° C. for 2 h. The resin was then washed 3× with ChD purification buffer (20 mM Tris, pH 8, 150 mM NaCl, 0.01% Tween-20, 1 mM PMSF). Proteins were eluted by the addition of 0.5 M imidazole to ChD purification buffer.” for “buffer.”
as §2

CBX4 ChD = biological target: T3, CBX4 ChD (Homo sapiens, UniProt O00257); assay: as above; conditions: read-out: CBX Protein Chromodomain Kd (μM) CBX4, Table 3, fluorescein-conjugated ligands, n = 4 ± s.d.
T3 construct: CBX chromodomain constructs; host or cells: E. coli BL21 CodonPlus RIL
T3 sequence (O00257 11-69 limits assumed): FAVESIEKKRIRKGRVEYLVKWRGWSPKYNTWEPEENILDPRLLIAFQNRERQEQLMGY

Q: What does the source list for `CC[C@H](C)[C@H](NC(=O)[C@@H](NC(=O)[C@H](Cc1ccc(O)c(Cl)c1)NC(=O)c1cc(Cl)cc(Cl)c1)C1CCCC1)C(=O)N[C@@H](CCCCN(CC)CC)C(=O)N[C@@H](CO)C(=O)NCc1cn(CCCCNC(=O)c2ccc(-c3c4ccc(=O)cc-4oc4cc(O)ccc34)cc2)nn1` [SW2_152F-FL] ({Benzoyl(3,5-Cl2)}-[Tyr(3-Cl)][Gly(cPent)]I[Lys(Et2)]S-X1)?
A: Kd (CBX7 ChD): > 20 µM; Kd (CBX2 ChD [1]): 0.11 µM; Kd (CBX2 ChD [2]): 0.08 ± 0.01 µM; Kd (CBX4 ChD): > 20 µM
